# Measured values published in the supplement of paper PMC6411743.
# Protein sequences, listed by entry. Tags and fused reporters are not part of them. Lines headed by an entry give the natural chain unless they say otherwise; changes in a name come on top.
# UniProt Q05193: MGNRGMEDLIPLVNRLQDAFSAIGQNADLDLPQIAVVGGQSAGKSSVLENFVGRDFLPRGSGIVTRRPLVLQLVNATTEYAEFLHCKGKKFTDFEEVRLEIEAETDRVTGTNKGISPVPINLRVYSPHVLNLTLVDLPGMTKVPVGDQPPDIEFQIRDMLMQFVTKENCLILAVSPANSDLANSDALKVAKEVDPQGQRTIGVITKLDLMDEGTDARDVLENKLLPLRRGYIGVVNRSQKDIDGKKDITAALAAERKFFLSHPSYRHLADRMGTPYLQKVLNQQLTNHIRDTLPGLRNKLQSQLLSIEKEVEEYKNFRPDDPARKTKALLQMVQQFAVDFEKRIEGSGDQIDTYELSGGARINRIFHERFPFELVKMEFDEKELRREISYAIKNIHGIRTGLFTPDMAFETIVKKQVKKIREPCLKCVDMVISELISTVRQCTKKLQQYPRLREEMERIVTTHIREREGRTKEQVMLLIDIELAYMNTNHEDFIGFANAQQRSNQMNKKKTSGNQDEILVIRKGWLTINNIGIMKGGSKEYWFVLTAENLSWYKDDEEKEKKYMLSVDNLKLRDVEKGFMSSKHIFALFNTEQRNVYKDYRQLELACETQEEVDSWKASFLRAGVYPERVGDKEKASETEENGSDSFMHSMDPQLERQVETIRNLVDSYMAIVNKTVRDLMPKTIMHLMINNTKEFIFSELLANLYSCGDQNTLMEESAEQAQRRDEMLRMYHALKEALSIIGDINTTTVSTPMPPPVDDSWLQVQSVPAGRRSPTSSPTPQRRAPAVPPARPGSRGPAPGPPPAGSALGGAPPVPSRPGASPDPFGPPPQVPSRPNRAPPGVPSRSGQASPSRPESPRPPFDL
# UniProt Q9P2K5: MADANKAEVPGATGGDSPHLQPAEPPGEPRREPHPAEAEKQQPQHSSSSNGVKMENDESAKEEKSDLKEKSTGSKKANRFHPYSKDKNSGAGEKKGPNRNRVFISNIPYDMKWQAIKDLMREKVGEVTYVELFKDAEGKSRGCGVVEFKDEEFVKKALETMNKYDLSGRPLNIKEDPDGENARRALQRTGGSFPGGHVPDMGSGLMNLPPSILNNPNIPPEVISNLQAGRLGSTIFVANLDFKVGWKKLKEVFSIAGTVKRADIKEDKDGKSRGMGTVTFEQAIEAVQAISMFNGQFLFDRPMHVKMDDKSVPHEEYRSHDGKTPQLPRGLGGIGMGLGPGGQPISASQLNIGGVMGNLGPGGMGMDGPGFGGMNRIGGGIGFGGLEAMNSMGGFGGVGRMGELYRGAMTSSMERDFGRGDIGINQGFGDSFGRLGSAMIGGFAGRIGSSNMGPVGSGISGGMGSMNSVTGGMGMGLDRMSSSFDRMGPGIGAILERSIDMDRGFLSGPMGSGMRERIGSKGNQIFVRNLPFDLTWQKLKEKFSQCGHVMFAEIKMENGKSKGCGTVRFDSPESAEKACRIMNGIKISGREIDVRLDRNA
# UniProt Q6DD87: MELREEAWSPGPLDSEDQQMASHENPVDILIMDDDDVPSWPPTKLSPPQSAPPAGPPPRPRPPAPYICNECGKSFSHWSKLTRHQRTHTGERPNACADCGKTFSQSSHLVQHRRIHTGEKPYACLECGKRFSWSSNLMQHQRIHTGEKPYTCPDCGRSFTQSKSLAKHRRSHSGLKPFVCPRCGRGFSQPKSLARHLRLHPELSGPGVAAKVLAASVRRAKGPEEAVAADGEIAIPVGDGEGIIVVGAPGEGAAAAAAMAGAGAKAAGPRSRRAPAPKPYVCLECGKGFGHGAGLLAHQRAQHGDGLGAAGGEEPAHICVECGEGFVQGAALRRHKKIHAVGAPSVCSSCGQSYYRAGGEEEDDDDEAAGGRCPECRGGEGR
# UniProt Q86WJ1: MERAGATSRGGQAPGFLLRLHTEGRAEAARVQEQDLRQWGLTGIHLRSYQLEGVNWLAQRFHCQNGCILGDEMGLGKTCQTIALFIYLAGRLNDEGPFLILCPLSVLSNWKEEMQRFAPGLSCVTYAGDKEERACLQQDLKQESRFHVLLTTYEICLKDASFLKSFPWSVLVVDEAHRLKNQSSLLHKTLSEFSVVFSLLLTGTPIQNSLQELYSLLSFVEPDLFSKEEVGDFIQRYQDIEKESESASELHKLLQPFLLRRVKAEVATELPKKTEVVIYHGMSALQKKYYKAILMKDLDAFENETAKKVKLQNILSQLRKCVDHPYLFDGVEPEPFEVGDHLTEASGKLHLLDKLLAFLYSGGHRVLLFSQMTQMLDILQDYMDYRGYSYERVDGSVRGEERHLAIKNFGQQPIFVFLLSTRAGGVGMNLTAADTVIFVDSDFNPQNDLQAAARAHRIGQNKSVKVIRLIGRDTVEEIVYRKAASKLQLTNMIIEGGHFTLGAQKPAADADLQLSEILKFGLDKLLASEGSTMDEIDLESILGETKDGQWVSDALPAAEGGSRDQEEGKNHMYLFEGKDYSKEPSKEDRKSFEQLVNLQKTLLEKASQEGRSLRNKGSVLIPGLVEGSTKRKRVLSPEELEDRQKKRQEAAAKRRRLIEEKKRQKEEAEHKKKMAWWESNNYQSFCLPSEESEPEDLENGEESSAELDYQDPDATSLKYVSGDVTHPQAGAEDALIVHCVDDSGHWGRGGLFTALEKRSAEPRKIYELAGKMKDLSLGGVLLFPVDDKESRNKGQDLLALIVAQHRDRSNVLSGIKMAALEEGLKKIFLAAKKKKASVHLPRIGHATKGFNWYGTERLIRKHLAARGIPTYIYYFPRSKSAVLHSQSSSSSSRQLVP
# UniProt Q15283: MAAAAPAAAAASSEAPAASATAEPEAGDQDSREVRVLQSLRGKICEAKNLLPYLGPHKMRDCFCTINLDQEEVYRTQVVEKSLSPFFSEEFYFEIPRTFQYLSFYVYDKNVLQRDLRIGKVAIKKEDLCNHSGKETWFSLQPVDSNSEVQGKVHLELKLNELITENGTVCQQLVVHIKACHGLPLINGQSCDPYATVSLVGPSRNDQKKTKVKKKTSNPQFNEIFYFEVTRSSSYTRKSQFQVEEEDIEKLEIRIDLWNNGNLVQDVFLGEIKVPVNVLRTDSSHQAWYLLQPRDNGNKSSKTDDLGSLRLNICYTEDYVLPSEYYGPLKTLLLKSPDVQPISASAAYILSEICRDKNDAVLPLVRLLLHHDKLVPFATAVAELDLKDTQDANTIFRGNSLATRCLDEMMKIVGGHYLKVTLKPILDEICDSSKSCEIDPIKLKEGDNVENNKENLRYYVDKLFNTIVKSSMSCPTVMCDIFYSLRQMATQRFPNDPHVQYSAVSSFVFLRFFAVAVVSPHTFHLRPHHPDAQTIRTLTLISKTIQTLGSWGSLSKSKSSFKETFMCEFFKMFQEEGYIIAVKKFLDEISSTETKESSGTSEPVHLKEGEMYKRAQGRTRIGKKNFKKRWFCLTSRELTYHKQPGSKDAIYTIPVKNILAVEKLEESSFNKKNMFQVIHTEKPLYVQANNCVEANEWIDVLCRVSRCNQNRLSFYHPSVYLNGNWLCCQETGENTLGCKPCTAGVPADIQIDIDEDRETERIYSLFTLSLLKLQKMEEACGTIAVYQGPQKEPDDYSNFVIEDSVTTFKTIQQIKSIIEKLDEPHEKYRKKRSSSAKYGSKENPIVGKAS
# UniProt O14646: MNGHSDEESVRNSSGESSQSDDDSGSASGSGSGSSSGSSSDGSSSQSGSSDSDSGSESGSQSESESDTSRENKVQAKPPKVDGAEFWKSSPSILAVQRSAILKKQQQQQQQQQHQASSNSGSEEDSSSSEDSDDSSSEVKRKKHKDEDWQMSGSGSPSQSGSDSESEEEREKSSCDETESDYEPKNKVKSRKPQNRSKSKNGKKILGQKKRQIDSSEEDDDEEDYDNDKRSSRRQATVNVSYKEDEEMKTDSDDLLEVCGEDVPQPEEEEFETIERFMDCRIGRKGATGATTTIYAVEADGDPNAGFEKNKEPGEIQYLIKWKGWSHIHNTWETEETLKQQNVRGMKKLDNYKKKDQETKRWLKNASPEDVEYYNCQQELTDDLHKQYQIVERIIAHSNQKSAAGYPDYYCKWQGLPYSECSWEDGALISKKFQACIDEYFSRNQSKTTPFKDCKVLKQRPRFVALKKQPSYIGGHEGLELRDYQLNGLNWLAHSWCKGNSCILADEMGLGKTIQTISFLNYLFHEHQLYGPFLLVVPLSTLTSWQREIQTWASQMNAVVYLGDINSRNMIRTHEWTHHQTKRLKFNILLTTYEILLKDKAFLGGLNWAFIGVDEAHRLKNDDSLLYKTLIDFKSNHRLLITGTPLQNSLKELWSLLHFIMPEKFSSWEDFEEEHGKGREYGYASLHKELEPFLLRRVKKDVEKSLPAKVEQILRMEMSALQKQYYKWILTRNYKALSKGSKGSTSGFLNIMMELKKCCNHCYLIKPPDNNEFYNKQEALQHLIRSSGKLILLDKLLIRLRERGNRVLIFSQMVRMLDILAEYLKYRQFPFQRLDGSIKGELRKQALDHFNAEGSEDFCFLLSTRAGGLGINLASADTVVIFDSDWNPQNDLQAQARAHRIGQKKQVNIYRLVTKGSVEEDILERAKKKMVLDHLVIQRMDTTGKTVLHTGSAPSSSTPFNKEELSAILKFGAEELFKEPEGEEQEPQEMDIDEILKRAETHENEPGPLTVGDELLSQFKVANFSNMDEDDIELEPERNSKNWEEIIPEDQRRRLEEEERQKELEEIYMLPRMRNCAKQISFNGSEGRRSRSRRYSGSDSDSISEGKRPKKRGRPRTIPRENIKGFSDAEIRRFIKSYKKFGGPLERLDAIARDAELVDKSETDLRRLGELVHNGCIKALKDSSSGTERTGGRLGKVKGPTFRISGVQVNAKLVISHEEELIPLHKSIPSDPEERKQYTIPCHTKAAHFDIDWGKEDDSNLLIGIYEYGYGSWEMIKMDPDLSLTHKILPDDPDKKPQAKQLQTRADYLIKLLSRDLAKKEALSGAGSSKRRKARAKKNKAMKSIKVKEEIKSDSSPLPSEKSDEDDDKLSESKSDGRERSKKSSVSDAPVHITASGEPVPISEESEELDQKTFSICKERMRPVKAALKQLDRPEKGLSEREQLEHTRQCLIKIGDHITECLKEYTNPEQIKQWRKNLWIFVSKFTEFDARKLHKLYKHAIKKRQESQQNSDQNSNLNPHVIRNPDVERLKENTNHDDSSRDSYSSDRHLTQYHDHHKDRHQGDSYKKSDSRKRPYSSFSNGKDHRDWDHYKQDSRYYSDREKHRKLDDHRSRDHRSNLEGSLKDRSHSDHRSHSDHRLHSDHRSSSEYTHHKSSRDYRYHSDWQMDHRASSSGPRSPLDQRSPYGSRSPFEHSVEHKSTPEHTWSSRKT
# UniProt Q9P0P8: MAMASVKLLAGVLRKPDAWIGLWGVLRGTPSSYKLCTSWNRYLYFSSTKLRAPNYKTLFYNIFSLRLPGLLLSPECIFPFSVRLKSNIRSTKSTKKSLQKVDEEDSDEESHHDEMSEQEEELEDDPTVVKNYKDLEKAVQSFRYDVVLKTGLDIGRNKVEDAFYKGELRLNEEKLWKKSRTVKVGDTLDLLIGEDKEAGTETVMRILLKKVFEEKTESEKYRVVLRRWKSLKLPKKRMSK
# UniProt Q9BXJ9: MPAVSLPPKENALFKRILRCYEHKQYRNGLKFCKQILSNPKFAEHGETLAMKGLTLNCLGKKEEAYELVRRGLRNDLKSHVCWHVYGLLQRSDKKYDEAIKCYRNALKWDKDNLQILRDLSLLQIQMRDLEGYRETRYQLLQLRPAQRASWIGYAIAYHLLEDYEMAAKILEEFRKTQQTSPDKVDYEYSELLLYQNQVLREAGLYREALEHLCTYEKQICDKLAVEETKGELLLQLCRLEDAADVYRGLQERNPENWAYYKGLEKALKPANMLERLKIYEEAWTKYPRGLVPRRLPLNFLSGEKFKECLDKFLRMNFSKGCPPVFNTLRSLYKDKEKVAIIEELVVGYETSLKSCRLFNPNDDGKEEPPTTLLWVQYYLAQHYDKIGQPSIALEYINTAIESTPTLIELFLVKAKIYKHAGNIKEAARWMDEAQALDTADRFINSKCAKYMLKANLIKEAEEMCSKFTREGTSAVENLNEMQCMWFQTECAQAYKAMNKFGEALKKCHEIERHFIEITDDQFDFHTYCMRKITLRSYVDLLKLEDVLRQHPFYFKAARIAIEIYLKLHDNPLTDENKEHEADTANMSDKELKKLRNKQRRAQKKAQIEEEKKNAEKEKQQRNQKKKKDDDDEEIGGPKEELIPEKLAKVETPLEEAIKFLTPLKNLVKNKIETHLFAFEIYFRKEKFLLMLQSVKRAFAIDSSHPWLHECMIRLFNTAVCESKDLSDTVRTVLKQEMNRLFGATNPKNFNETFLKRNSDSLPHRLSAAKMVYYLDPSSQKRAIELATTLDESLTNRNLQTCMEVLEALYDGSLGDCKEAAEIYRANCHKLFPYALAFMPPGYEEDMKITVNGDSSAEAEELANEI
# ± gives the standard deviation of the averaged measurements. Only a part is listed here, and it is no random draw.
# Compound: Nc1ncnc2c1ncn2[C@@H]1O[C@H](COP(=O)(O)OP(=O)(O)OP(=O)(O)O)[C@@H](O)[C@H]1O [adenosine triphosphate]
# Assay: NP40-soluble protein abundance relative to vehicle (solubility fold change) (ratio); higher = more soluble protein in presence of ATP
# Conditions: concentration: 6mM
# Summary of the method: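 Values are fold changes against the detergent-processed vehicle, based on vsn-normalised intensities. Jurkat crude lysate was treated at eight concentrations from 0.1 to 10 mM (10 min at room temperature, then 3 min at 37 °C), solubilised with 0.8% NP40 and benzonase, ultracentrifuged and analysed by TMT-labelled LC-MS/MS over three independent experiments.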
row,Target,NP40-soluble protein abundance
1,A0A087WYL7|G3V4A5 and related entries (UniProt O75586),1.02 ± 0.096
2,A0A087X020|Q9Y3A5 (UniProt Q9Y3A5),0.986 ± 0.071
3,A0A0D9SFE4|A0A0D9SFB1|A0A0U1RQP1|Q05193 and related entries (UniProt Q05193),0.958 ± 0.048
4,A0A0B4J2F8|A6NFM0 and related entries (UniProt Q9GZM3+Q9H1A7+P52435+F6S314+E2QRJ6+A6NFM0),1.02 ± 0.045
5,A0A087X159|P81877 and related entries (UniProt P81877),1.17 ± 0.19
6,A0A0A0MQW0|A0A0A0MR39 (UniProt Q9P2K5),1.12 ± 0.047
7,A0A087WUD1 (UniProt Q6DD87),0.956 ± 0.042
8,A0A087WTU9|A0A087WZY3|Q8TCU4 and related entries (UniProt Q8TCU4),0.903 ± 0.018
9,A0A0A0MSH9|Q86WJ1 and related entries (UniProt Q86WJ1),0.985 ± 0.049
10,A0A087WZ30|A0A087X072|O94761 (UniProt O94761),0.919 ± 0.22
11,A0A0A0MSJ9|Q15283 and related entries (UniProt Q15283),0.993 ± 0.098
12,A0A0B4J2A0|Q9UHJ6 (UniProt Q9UHJ6),0.992 ± 0.057
13,A0A087WVF4|O14646 and related entries (UniProt O14646),1.14 ± 0.032
14,A0A0D9SEI0|Q9P0P8 (UniProt Q9P0P8),0.965 ± 0.03
15,A0A0B4J1W3|Q9BXJ9 (UniProt Q9BXJ9),1 ± 0.07
16,A0A0C4DG17|C9J9K3 and related entries (UniProt P08865),0.813 ± 0.12

# Looked up one by one from above (two):
row,Target,NP40-soluble protein abundance
1,A0A087WYL7|G3V4A5 and related entries (UniProt O75586),1.02 ± 0.096
13,A0A087WVF4|O14646 and related entries (UniProt O14646),1.14 ± 0.032
